Assay results published in patent US9115169B2 (Lytix Biopharma AS, priority 2000, dated 2015).

Test: general procedure: Fmoc solid-phase peptide synthesis; PAC-PEG-PS; Pfp esters with HOBt, or HATU/DIPEA; HBTU/HOBt/DIPEA in solution
Details: whole synthesis, analytical RP-HPLC C18

Substance: RWrw-OBzl
- final HPLC purity: 98%
